Chains of the proteins cited; added tags and fusions are not shown. Residues count along the entry.
UniProt P05067, 672-713 limits assumed: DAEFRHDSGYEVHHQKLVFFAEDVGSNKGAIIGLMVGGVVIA

In PMC6164518 (Marine Drugs, 2018):

Biological target: T1, Aβ1–42 (Homo sapiens, UniProt P05067)
T1 construct: pre-treated Aβ1–42 (GL Biochem Ltd., Shanghai, China) was dissolved in DMSO; purchased GL Biochem Ltd., Shanghai, China
Experiment: Inhibition of self-induced Aβ1–42 aggregation (ThT fluorescence)
Type: biochemical
Settings: Aβ1–42 2.5 µM, compound 10 µM; mean ± SD of three experiments
Method: In order to investigate the inhibition of compounds on Aβ1–42 self-aggregation, a ThT-based fluorometric assay was performed. 1,1,1,3,3,3-hexafluoro-2-propanol (HFIP) pre-treated Aβ1–42 (GL Biochem Ltd., Shanghai, China) was dissolved in DMSO to make a 200 µM stock solution. The stock solution was centrifuged at the speed of 13,500 rpm for 10 min. The above supernatant was used for experiments. The tested compounds were dissolved in DMSO at concentrations of 0.8 mM. A screening assay for the tested compounds to inhibit A aggregation was performed by measuring ThT fluorescence emission. Compounds (2 µL) and 2 µL of 200 µM Aβ1–42 were added into 76 µL of phosphate-buffered saline (PBS at pH 7.4) in a 96-well plate. After incubation for 24 h at room temperature, 80 µL of 5 µM of ThT solution (in 50 mM of glycine-NaOH at pH 8.5) was added to the reaction solution. Fluorescence emission was measured at 490 nm with an excitation wavelength of 450 nm on a Tecan Spark multimode microplate reader. […] The fluorescence intensities were compared, and the % inhibition was calculated by the following equation: 100 − [(Fi − Fb)/(Fo − Fb) × 100], where Fi, Fo and Fb are the fluorescence intensities obtained for Aβ aggregation in the presence of inhibitors Aβ1–42 and ThT; in the presence of Aβ1–42 and THT but no inhibitors; and the blanks containing ThT only.

With COc1cc2c(cc1OC)C(=O)C(CC1CCN(Cc3ccccc3)CC1)C2 (stereo not shown) [Donepezil] the “Inhibition of Aβ Aggregation (%) Self-Induced” value was 17.95 ± 0.77%.
